Results from patent US20070099828A1, “BIOMARKERS FOR THE EFFICACY OF CALCITONIN AND PARATHYROID HORMONE TREATMENT” (priority 2003, published 2007).
Part of at least one peptide drawing is inferred or uncertain, most often the ends.

Assay: Hormone determinations in serum
Format: in vivo, cynomolgus monkeys (Macaca fascicularis)
Conditions: two-week s.c. treatment
From the text: Blood sampling. […] Blood samples were taken from a peripheral vein.

## CC(C)C[C@H](NC(=O)[C@H](CCCCN)NC(=O)CNC(=O)[C@H](CC(C)C)NC(=O)[C@@H](NC(=O)[C@@H]1CSSC[C@H](N)C(=O)N[C@@H](CO)C(=O)N[C@@H](CC(N)=O)C(=O)N[C@@H](CC(C)C)C(=O)N[C@@H](CO)C(=O)N[C@@H]([C@@H](C)O)C(=O)N1)C(C)C)C(=O)N[C@@H](CO)C(=O)N[C@@H](CCC(N)=O)C(=O)N[C@@H](CCC(=O)O)C(=O)N[C@@H](CC(C)C)C(=O)N[C@@H](Cc1c[nH]cn1)C(=O)N[C@@H](CCCCN)C(=O)N[C@@H](CC(C)C)C(=O)N[C@@H](CCC(N)=O)C(=O)N[C@H](C(=O)N[C@@H](Cc1ccc(O)cc1)C(=O)N1CCC[C@H]1C(=O)N[C@@H](CCCNC(=N)N)C(=O)N[C@H](C(=O)N[C@@H](CC(N)=O)C(=O)N[C@H](C(=O)NCC(=O)N[C@@H](CO)C(=O)NCC(=O)N[C@H](C(=O)N1CCC[C@H]1C(N)=O)[C@@H](C)O)[C@@H](C)O)[C@@H](C)O)[C@@H](C)O [Salmon Calcitonin, reference compound]
  serum somatomedin (S.MLD): moderate decreases
